Assay results reported in patent publication US20230272371A1, “METHOD FOR SCREENING FOR POLYPEPTIDE THAT ACTS ON TARGET PROTEIN” (NATIONAL INSTITUTE OF ADVANCED INDUSTRIAL SCIENCE AND …, priority 2020, published 2023).
These are yes or no findings as the source states them, for the method shown. Some entries that bind do so weakly or less than the wild type.

Biological target: T1, human Kv2.1 (human) (UniProt Q14721)
T1 sequence (looked up): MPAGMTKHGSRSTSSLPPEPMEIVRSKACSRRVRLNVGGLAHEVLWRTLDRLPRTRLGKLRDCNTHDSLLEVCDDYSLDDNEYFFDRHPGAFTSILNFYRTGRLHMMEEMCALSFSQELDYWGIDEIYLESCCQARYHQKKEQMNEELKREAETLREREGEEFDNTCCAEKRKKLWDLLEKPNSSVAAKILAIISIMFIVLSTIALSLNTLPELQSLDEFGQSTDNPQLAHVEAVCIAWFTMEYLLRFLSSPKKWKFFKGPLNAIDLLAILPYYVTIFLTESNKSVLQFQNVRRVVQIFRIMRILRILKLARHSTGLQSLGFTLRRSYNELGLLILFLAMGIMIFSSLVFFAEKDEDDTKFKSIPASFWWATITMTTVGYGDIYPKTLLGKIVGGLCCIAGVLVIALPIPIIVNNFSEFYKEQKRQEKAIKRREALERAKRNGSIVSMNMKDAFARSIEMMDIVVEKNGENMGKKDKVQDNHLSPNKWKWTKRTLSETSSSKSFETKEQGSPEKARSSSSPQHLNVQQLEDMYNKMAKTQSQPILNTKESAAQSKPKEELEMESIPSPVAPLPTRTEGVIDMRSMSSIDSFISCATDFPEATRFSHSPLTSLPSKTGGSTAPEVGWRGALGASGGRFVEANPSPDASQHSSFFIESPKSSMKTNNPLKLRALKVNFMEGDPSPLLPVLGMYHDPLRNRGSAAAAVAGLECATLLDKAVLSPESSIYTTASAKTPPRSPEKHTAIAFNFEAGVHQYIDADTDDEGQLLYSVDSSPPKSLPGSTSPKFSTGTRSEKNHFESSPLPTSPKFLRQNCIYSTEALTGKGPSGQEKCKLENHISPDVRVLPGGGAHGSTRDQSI
Assay: clone from the library concentrated 5 times by the PERISS method (Strept-tag capture of peptide / Kv2.1 / spheroplast complexes on streptavidin magnetic beads); no effect on the current in patch clamp

Clone 32 peptide (SEQ ID NO: 8), from the GTx1-15-based ODA library (from UniProt P0AEG6 21-236)
binding: binds
